Measurements as given in PubChem BioAssay AID2685 (National Center for Advancing Translational Sciences (NCATS), 2010).
The campaign covered roughly 320,000 compounds. About 2,100 (0.66%) were called active. Inconclusive results, whose numbers are uncertain, are shown with a selection of clear calls. Calls follow the shape of the dose curve; as a rule, active = well fitted inhibition curve with a large enough effect in the signal ratio, with a control signal flat (not every such curve was filed as active); inconclusive = small, poorly fitted or top-dose-only effect, or effect the other way, or a change in a side signal; inactive = flat fitted curve, though single readings scatter; the % refers to the signal ratio. Potencies of inconclusive entries are doubtful fits and often do not repeat.

Assay: qHTS Assay for Lipid Storage Modulators in Drosophila S3 Cells
Conditions: BODIPY lipid droplet fluorescence, 18-24 h, cells fed with added oleic acid; lipid storage change, negative = inhibition: at 46.1 µM (top of the series) unless noted
Procedure, shortened: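 Drosophila S3 cells loaded with oleic acid (400 uM, as added) and compounds at several concentrations; lipid droplets imaged by 488-nm laser-scanning cytometry, 500–530 nm intensity and object ratio to cell channel. Percent activity normalized to 20 uM Triacsin C.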
% is scaled to controls: 0 for no effect and ±100 for the full control effect; potency is read from the fitted curve at half-maximal effect.

SMILES	lipid storage change, negative = inhibition	Potency
CCn1c(Cn2nnc(-c3ccccc3)n2)nnc1SCC(=O)Nc1ccc(C(C)=O)cc1	inconclusive: -34.8%	–
COc1ccc(C)cc1S(=O)(=O)N(CC(=O)Nc1cccc([N+](=O)[O-])c1)c1ccccc1	inconclusive: 47%	–
Cc1ccc(NC(=O)C(c2ccccc2)N2CCN(CC(=O)NC3CC3)CC2)cc1Cl (configuration not stated)	–	inconclusive: 4.11 µM [activator, partial curve, poor fit]
Cc1cc(Cl)ccc1NNC(=O)c1c(C)noc1C	–	inconclusive: 29.1 µM [falling, single point]
COc1cc(/C=C/C(=O)O)cc(S(=O)(=O)NC2CC2)c1OC	inconclusive: -3.69%	–
C/C(=N\NC(=O)c1cc(C)nc2ccccc12)c1ccncc1	–	inconclusive: 0.184 µM [activator, partial curve, poor fit]
Cc1cccc(C)c1-n1c(C)cc(/C=N\Nc2ccc([N+](=O)[O-])cn2)c1C	–	inconclusive: 29.1 µM [falling, single point]
Cc1oc(-c2ccc(Cl)cc2)nc1CS(=O)CC(=O)NCc1ccccc1 (configuration not stated)	inconclusive: 18.7%	–
O=C(c1ccccc1)c1ccc(OC(=O)N2CCCC2)cc1	inconclusive: -27.7%	–
COc1ccc(NC(=O)c2ccco2)cc1NC(=O)c1ccccc1	–	inconclusive: 2.06 µM [activator, full curve]
O=C(O)Cc1c(C(=O)O)nnn1-c1cccc(C(F)(F)F)c1	–	inconclusive: 8.2 µM [falling, partial curve, poor fit]
Cc1nc2ccc(S(=O)(=O)NCC(=O)N3CCOCC3)cc2s1	inconclusive: 10.2%	–
CCC(=O)N1CCN(c2ccc(NC(=O)c3ccc4c(c3)OCCO4)cc2)CC1	inactive	–
CCC1CCCCN1S(=O)(=O)c1ccc(C(=O)Nc2nnc(-c3ccccc3Cl)o2)cc1 (configuration not stated)	inconclusive: -14.5%	–
Cc1cc2ncc(Cl)nc2cc1C	inconclusive: 0.611%	–
O=C(Oc1ccc(/C=N/O)cc1)c1ccccc1	–	inconclusive: 0.146 µM [falling, full curve, poor fit]
COc1ccc(C(=O)CSC#N)cc1OC	inconclusive: -17.2%	–
O=C(Cc1cccs1)Nc1ccc(F)c(F)c1	–	inconclusive: 29.1 µM [activator, partial curve]
O=C(c1nc2ccccn2c1CN1CCCC(c2nc3ccccc3o2)C1)N1CCCC1 (configuration not stated)	inconclusive: 16.9%	–
Cc1cc(Oc2ccc(=O)n(C)n2)nc(SCCOc2ccccc2)n1	inconclusive: 20.7%	–
O=C(N/N=C/c1ccccc1)c1ccc(-c2ccccc2)cc1	inconclusive: 20.1%	–
O=C1C=C(NNC(=O)c2ccccc2Br)CCC1	inconclusive: 19.8%	–
Cc1ccc(N(CC(=O)Nc2ccc(F)c(Cl)c2)S(=O)(=O)c2c(C)noc2C)cc1	inconclusive: -13.4%	–
CCN1CCN(C(=O)c2cc(-c3ccco3)nc3ccccc23)CC1	–	inconclusive: 0.146 µM [falling, full curve, poor fit]
COc1ccc(/C(N)=N/OC(=O)Cc2cccs2)cc1OC	inconclusive: -1.09%	–
CCOc1cc(C(c2c(C)[nH][nH]c2=O)c2c(C)[nH][nH]c2=O)ccc1OS(=O)(=O)c1ccccc1	–	active: 29.1 µM

SMILES	lipid storage change, negative = inhibition	Potency
CN1CCN(C(=O)c2ccc(S(=O)(=O)c3ccc(Br)cc3)cc2)CC1	–	inconclusive: 16.4 µM [activator, single point]
Cc1cccc(NCCC(=O)c2ccc([N+](=O)[O-])cc2)c1C	–	inconclusive: 0.259 µM [cytotoxic, full curve]
Cc1ccc(Sc2cc(NCCCO)c([N+](=O)[O-])c3nonc23)cc1	–	inconclusive: 25.9 µM [falling, partial curve]
CC(C)c1ccc(C(=O)NC2=NCCS2)cc1	inconclusive: -3.13%	–
CCNC(=S)Nc1ccc(Cl)c([N+](=O)[O-])c1	inconclusive: 19.7%	–
C=CCOc1c(CNc2nccs2)cccc1OCC	inconclusive: 8.3%	–
Cc1cc(C)c(NC(=O)CN2C(=O)NC(CCc3ccccc3)C2=O)c(C)c1 (configuration not stated)	inconclusive: -34.1% [at 0.00295 µM]	–
CCOc1ccc(/C=C2\SC(=S)N(CCCC(=O)NCCCN3CCOCC3)C2=O)cc1	–	inconclusive: 29.1 µM [falling, single point]
COCCn1c(=NC(=O)CSCC(=O)N2CCOCC2)sc2cc(C)ccc21	inconclusive: -37.5%	–
O=C(O)COc1c(Cl)cc(/C=C2\NC(=O)NC2=O)cc1Br	inconclusive: -2.61%	–
Cc1cccc(NS(=O)(=O)c2ccc(C)c(C(=O)OCC(=O)Nc3cc(C)on3)c2)c1	inconclusive: 249%	–
CC(=O)Nc1ccc2c(c1)c1ccccc1n2C(C)=O	–	inconclusive: 2.31 µM [activator, partial curve]
CS(=O)(=O)N1CCN(C(=O)CCc2ccccc2)CC1	inconclusive: 12.4%	–
COc1ccc(S(=O)(=O)N2CCN(S(=O)(=O)c3ccc4c(c3)OCCO4)CC2)cc1C	inconclusive: 16.3%	–
CCOc1ccc2nc(SCC(=O)NCc3ccccc3OC)[nH]c2c1	–	inconclusive: 29.1 µM [falling, single point]
O=C(NCCO)/C(=C\c1ccco1)NC(=O)c1cccs1	inconclusive: 3.85%	–
Cc1ccc(C2=NCCn3nc4cc([N+](=O)[O-])ccc4c32)cc1	inconclusive: -2.79%	–
CCC(=O)Nc1ccc(C(=O)CSc2nnc(CNc3ccc(Cl)cc3)o2)cc1OC	inconclusive: 44.8%	–
Nc1ncncc1-c1ccc(Cl)cc1	inconclusive: 5.79%	–
COC(=O)/C(=C\c1ccc2c(c1)c1ccccc1n2C)NC(=O)c1ccccc1	inconclusive: -20.2%	–
COc1cccc(Cc2n[nH]c(=S)n2Cc2ccco2)c1	inconclusive: 24.1%	–
Cn1c(SCc2c(F)cccc2Cl)nc2ccccc2c1=O	inconclusive: 4.63%	–
CN(C)CCCCOc1cccc(Br)c1	–	inconclusive: 0.146 µM [rising, full curve, poor fit]
O=[N+]([O-])c1ccc(/C=N/Nc2ncc(-c3ccccc3)cn2)cc1	inconclusive: -5.33%	–
Cc1cccc(NC(=O)Cn2c(O)c(N=NC(N)=S)c3ccccc32)c1	inconclusive: -26.8%	–
CC(=O)Nc1ccc(S(=O)(=O)NCC(=O)OCC(=O)NNC(=O)c2ccccc2)cc1	inconclusive: 4.75%	–

SMILES	lipid storage change, negative = inhibition	Potency
CCC(=O)N1CCN(c2ccc(NC(=S)NC(=O)COc3ccccc3)cc2)CC1	–	inconclusive: 18.4 µM [cytotoxic, single point]
Cc1ccccc1NC(=O)CSc1nc(N)c(C#N)cc1C#N	–	inconclusive: 0.184 µM [rising, full curve, poor fit]
CCCCN(C)C(=O)c1ccc2c(c1)N(CC)C(=O)c1ccccc1S2(=O)=O	inconclusive: 42.2%	–
O=[N+]([O-])c1ccc(N/N=C2/CCCCC2c2ccccn2)c([N+](=O)[O-])c1 (configuration not stated)	–	inconclusive: 20.6 µM [activator, partial curve]
Cc1cc(=O)n2nc(N3CCCC(C(=O)NCCCN4CC(C)CC(C)C4)C3)sc2n1 (configuration not stated)	inconclusive: 114%	–
COc1ccc(CCNC(=O)COC(=O)C2COc3ccccc3O2)cc1 (configuration not stated)	–	inconclusive: 13 µM [falling, partial curve, poor fit]
COC(=O)COc1c(/C=C\c2nc(O)c([N+](=O)[O-])c(=O)[nH]2)cccc1OC	–	inconclusive: 10.3 µM [activator, single point]
Cc1cccc(OC(C)C(=O)N/N=C\c2ccncc2)c1 (configuration not stated)	inconclusive: 7.59%	–
O=C(NCCC1CC1(Cl)Cl)Nc1ccccc1 (configuration not stated)	inconclusive: 16.6%	–
COc1cc(S(=O)(=O)NC(C)C)ccc1Cl	inconclusive: -33.3%	–
Cc1ccc(C2=[N+]([O-])C(C)N(O)C2(C)C)o1 (configuration not stated)	–	inconclusive: 0.058 µM [falling, full curve]
Cc1nc(SCC(=O)NC(=O)NCc2ccco2)nc(C)c1C	inconclusive: -16.5%	–
O=C(CSc1nnc2ccc3ccccc3n12)N1CCOCC1	inconclusive: 23.4%	–
CSc1nc(NCc2ccco2)c2c3c(sc2n1)CN(C)CC3	inconclusive: 2.13%	–
CC(C)c1nnc(NC(=O)CS(=O)(=O)c2ccccc2)s1	inconclusive: -41.2%	–
NCc1cc2c3c(c1)CCCN3CCC2	inactive	–
Cc1oc(-c2ccccc2Cl)nc1CS(=O)(=O)CC(=O)NCCc1ccccc1	–	inconclusive: 1.46 µM [activator, partial curve]
CCN(Cc1cnn(C)c1)C(=O)c1cc(COc2ccc3c(c2)CCCC3)on1	–	inconclusive: 29.1 µM [activator, single point]
COc1ccc(NC(=O)COc2nsnc2N2CCOCC2)cc1	inconclusive: 160%	–
O=C(Cc1cccc(C(F)(F)F)c1)NCC(c1ccco1)N1CCCCC1 (configuration not stated)	inconclusive: -13.7%	–
CCC(=O)c1cn(CC(=O)NCC2CCCO2)c2ccccc12 (configuration not stated)	inconclusive: -32.4%	–
COc1ccc(NC(=O)CC2C(=O)N(Cc3ccco3)C(=S)N2C(C)C)cc1 (configuration not stated)	inconclusive: -14.8%	–
COc1ccc2nc(NCCCNC(=O)c3cc(OC)c(OC)c(OC)c3)c(C#N)cc2c1	inconclusive: 22.9%	–
Cc1cc(NC(=O)COC(=O)CNC(=O)c2cccs2)c([N+](=O)[O-])cc1C	inconclusive: 6.81%	–
CCOC(=O)c1oc2cc(O)c(CC)cc2c(=O)c1-c1cscn1	–	inconclusive: 0.326 µM [falling, full curve]

Entries of single compounds, quoted from the list.
`NCc1cc2c3c(c1)CCCN3CCC2` as listed: lipid storage change, negative = inhibition: inactive
`COC(=O)COc1c(/C=C\c2nc(O)c([N+](=O)[O-])c(=O)[nH]2)cccc1OC` as listed: Potency: inconclusive: 10.3 µM [activator, single point]
`Cc1cc(NC(=O)COC(=O)CNC(=O)c2cccs2)c([N+](=O)[O-])cc1C` as listed: lipid storage change, negative = inhibition: inconclusive: 6.81%
